# Some of the results follow. These are further read-outs of the screen, such as a control signal, another cell line or another target. No call is given for them. Most of these compounds were active or inconclusive in the main read-out, so they are no random draw. Potencies come from curve fits of mixed quality, noted in brackets.
# Test: IkB Signaling
# Conditions: ABC-DLBCL IkBa-CBG/CBR dual luciferase ratio (green luciferase fused to IkBa over red control in OCI-Ly3 lymphoma cells), 4 h; measured here: control luc red channel unless noted
# In short: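 In this assay, an IκBα–CBG68 fusion accumulates when IKK-driven degradation is blocked; native CBR normalizes for cell number. OCI-Ly3 cells were treated 4 h with compound and doxycycline, then green and red light read after Chroma-Glo addition.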
row,SMILES,AC50
1,C[C@H]1C[C@@H]2[C@@H]([C@@H](O)C[C@@]3(C)[C@H]2CC[C@]3(O)C(=O)CO)[C@@]2(C)C=CC(=O)C=C12,"3.98 nM [rising, full curve] [measured here: IkB-luc green channel]"
2,CC(=O)Nc1ccc2nc(SCCOc3ccccc3)sc2c1,"3.98 µM [rising, partial curve]"
3,Cc1c(CNC2CCCCCC2)c(C(=O)O)c(C)n1Cc1ccc(F)cc1,"25.1 µM [falling, single point]"
4,CCc1ccc(CN(Cc2ccco2)C(=O)COc2ccc(Cl)cc2C)cc1,"25.1 µM [falling, single point]"
5,CCc1nc2c(cnn2-c2ccc(Cl)cc2)c(=O)n1-c1ccc(OC)c(Cl)c1,"31.6 µM [falling, single point]"
6,O=C(CC1SC(=O)N(c2ccccc2)C1=O)Nc1ccccc1 (centres undefined),"3.98 µM [falling, full curve, poor fit]"
7,Cc1ccc2nc(N(Cc3cccnc3)C(=O)c3cccs3)sc2c1,"0.316 µM [falling, full curve]"
8,CCOc1ccc(N2CC(c3nc4ccccc4n3Cc3cccc(C)c3)CC2=O)cc1 (centres undefined),"31.6 µM [falling, single point]"
9,O=[N+]([O-])c1cc(-c2nc(-c3ccccc3)no2)ccc1NCCc1ccccc1,"39.8 µM [falling, single point]"
10,COc1ccc(Cl)cc1NC(=O)CSc1nc(-c2ccccc2)c2ccccc2n1,"5.01 µM [falling, partial curve]"
11,O=C(Nc1cccc(F)c1)[C@@H](c1ccccc1)N1Cc2ccccc2C1=O,"25.1 µM [falling, partial curve]"
12,COc1ccc(C)cc1NC(=O)C(CCSC)NS(=O)(=O)c1ccc2c(c1)oc(=O)n2C (centres undefined),"3.16 µM [rising, single point]"
13,CCOC(=O)c1c(C)[nH]c(CCC(=O)Nc2ccc(N(CC)CC)cc2C)c1C,"31.6 µM [falling, single point]"
14,CSCCC1NC2(C(=O)Nc3ccc(Cl)cc32)[C@@H]2C(=O)N(C3CCCC3)C(=O)[C@H]12 (some centres undefined),"12.6 µM [falling, partial curve]"
15,O=C(c1cccs1)N(Cc1ccco1)Cc1cc2ccccc2[nH]c1=O,"2 µM [falling, full curve]"
16,Brc1ccccc1-c1nnc(COc2ncnc3c2cnn3-c2ccccc2)o1,"39.8 µM [falling, partial curve]"
17,COc1cccc(NC(=O)c2sc3nc(C)c(C(=O)Nc4ccc(C)cc4C)c(-c4ccc(Br)cc4)c3c2N)c1,"6.31 µM [falling, partial curve]"
18,Cc1cc(Cl)ccc1NC(=O)C1CCN(S(=O)(=O)c2ccc3[nH]c(=O)ccc3c2)CC1,"39.8 µM [rising, single point]"
19,COc1ccc(N2CCN(C(=O)c3cc4c(=O)n(Cc5cccs5)ccc4nc3C)CC2)cc1,"39.8 µM [falling, single point]"
20,O=C(CSc1nnc(-c2ccccc2F)o1)OCc1ccccc1,"31.6 µM [falling, partial curve] [measured here: IkB-luc green channel]"

# Two records drawn at random from the list so far:
row,SMILES,AC50
13,CCOC(=O)c1c(C)[nH]c(CCC(=O)Nc2ccc(N(CC)CC)cc2C)c1C,"31.6 µM [falling, single point]"
17,COc1cccc(NC(=O)c2sc3nc(C)c(C(=O)Nc4ccc(C)cc4C)c(-c4ccc(Br)cc4)c3c2N)c1,"6.31 µM [falling, partial curve]"

# (cont.)

row,SMILES,AC50
1,Cc1ccc(CCNC(=O)CCSCc2ccccc2F)cc1,"25.1 µM [falling, single point]"
2,N#Cc1ccc(COc2ccc(CCO)cc2-n2nc3ccccc3n2)cc1,"31.6 µM [falling, single point]"
3,O=C(CCOc1ccccc1)N(Cc1cccnc1)c1nc2c(Cl)cccc2s1,"10 µM [falling, single point]"
4,Cc1cc(NC(=O)c2ccc(Cl)c(Cl)c2)ccc1-c1cc2ccccc2oc1=O,"0.316 µM [falling, full curve, poor fit]"
5,Oc1cccc(Nc2nc(-c3ccccc3)nc3ccccc23)c1,"15.8 µM [falling, partial curve]"
6,CCN(CCCNC(=O)c1cc2cc3cc(OC)ccc3nc2s1)c1ccccc1,"12.6 µM [falling, partial curve]"
7,Cn1cc(C(=O)c2ccccc2)cc1-c1nc2ccccc2n1C,"12.6 µM [falling, partial curve]"
8,O=C(CSC1=Nc2ccccc2C2=NC(CCC(=O)NC3CCCCC3)C(=O)N12)Nc1cccc(Cl)c1 (centres undefined),"25.1 µM [falling, partial curve]"
9,Cc1sc2nc(C(C)Nc3ccccc3N3CCOCC3)[nH]c(=O)c2c1C (centres undefined),"15.8 µM [falling, partial curve]"
10,Cc1nn(-c2ccccc2)c(Cl)c1C(=O)Nc1nnc(C2CCCC2)s1,"25.1 µM [falling, partial curve]"
11,Cn1c(=O)c2c(SCC(=O)NCC3CCCO3)nc(-c3ccccc3F)nc2n(C)c1=O (centres undefined),"0.794 µM [falling, partial curve, poor fit]"
12,Cc1ccc(C(C)C)c(OCC(O)CN2CC(C)OC(C)C2)c1 (centres undefined),"20 µM [falling, partial curve]"
13,CCOc1ccc(NC(=O)CSc2oc(-c3cccs3)nc2S(=O)(=O)c2ccc(Cl)cc2)cc1,"7.94 µM [falling, full curve]"
14,NCCCCCCNS(=O)(=O)c1cccc2c(Cl)cccc12,"39.8 µM [falling, partial curve]"
15,COc1ccc(CNc2nc(-c3ccc(OC)c(OC)c3)cc(C(F)(F)F)n2)cc1,"12.6 µM [falling, partial curve]"
16,CCn1ccc2cc(S(=O)(=O)N3CCC(C(=O)NCc4ccc(OC(C)C)cc4)CC3)ccc21,"2.51 µM [falling, full curve]"
17,O=C(CCCc1nc2ccccc2s1)N1CCN(S(=O)(=O)c2cccs2)CC1,"31.6 µM [falling, single point]"
18,COc1ccc(-c2nc3ccc(C(=O)NCc4ccccc4)cc3nc2-c2ccc(OC)cc2)cc1,"20 µM [falling, single point]"
19,CCCSc1nnc2c(n1)OC(CC)N(C(C)=O)c1ccccc1-2 (centres undefined),"20 µM [falling, single point]"

# From PubChem BioAssay AID445 (National Center for Advancing Translational Sciences (NCATS), 2006)
